According to US9987242B2, “Treatment of Levodopa-induced Dyskinesias” (NORTHWESTERN UNIVERSITY, priority 2015, dated 2018):
Entries after “also recorded” stand apart in the source; their conditions may differ. At least one structure is not confirmed: it was looked up by name or label, or the drawing left a doubt.

What was measured:
[1] = test system: dSPN glutamatergic synapses; assay: Depotentiation of established LTP by low-frequency stimulation (2 Hz, 10 min) in dSPNs; type: cell-based, mice; details: SCH23390 3 μM
[2] = test system: dSPN glutamatergic synapses; assay: Spike-timing-dependent LTD induction (post-pre pairing) in dSPNs, ex vivo corticostriatal slices, perforated-patch or whole-cell recording; type: cell-based, mice; details: SCH23390 3 μM bath applied
Excerpt: Male C57Bl/6 and FVB mice expressing tdTomato or eGFP under control of either the Drd1 or Drd2 receptor regulatory elements were used. All the mice used for the study were hemizygous for these transgenes. For some experiments, D1-tdTomato BAC mice were crossed with a transgenic line expressing Cre recombinase under control of the ChAT promoter. All mice were 8-10 weeks of age before stereotaxic surgery. Animal use procedures were reviewed and approved by the Northwestern Institutional Animal Care and Use Committee.
Slices were then transferred to a holding chamber containing aCSF. […]
All the recordings were made using a MultiClamp 700 A amplifier, and signals were filtered at 2 kHz and digitized at 10 kHz. […] Capacitance current was continuously monitored during perforation by applying a 5-10 mV pulse from a holding potential of −70 mV. The amplifier bridge circuit was adjusted to compensate for series resistance and continuously monitored during recordings. […]
Data analysis was conducted with Igor Pro 6 (Wavemetrics, Lake Oswego, Oreg.) and Clampfit 9 (Molecular Devices). EPSP amplitude was calculated from 50-60 sweeps immediately before the start of induction and 20-30 min after the end of induction. The change in EPSP amplitude was calculated by averaging EPSP values after the induction and normalized to the average baseline EPSP amplitude. Compiled data were expressed as mean±s.e.m. […]

In the case of CN1CCc2cc(Cl)c(O)cc2[C@@H](c2ccccc2)C1 [SCH23390], the “depotentiation by LFS in dSPNs” value ([1]; dyskinetic (LID) mice) was “depotentiated; also recorded: restored”, the “depotentiation by LFS in dSPNs” value ([1]; naive mice) was “depotentiated glutamatergic EPSPs; also recorded: facilitated depotentiation” and the “LTD induction in dSPNs (EPSP amplitude)” value [2] was “led to LTD in dSPNs; also recorded: revealed LTD”.
